Drawing on publication doi:10.1101/2022.03.07.483334, this text covers binding for one substance.

Chains of the proteins cited; added tags and fusions are not shown. Lines headed by an entry give the natural chain unless they say otherwise; changes in a name come on top. A line that says so, or that is headed by a name, gives the form on record, which may keep a tag or linker.
UniProt P15976: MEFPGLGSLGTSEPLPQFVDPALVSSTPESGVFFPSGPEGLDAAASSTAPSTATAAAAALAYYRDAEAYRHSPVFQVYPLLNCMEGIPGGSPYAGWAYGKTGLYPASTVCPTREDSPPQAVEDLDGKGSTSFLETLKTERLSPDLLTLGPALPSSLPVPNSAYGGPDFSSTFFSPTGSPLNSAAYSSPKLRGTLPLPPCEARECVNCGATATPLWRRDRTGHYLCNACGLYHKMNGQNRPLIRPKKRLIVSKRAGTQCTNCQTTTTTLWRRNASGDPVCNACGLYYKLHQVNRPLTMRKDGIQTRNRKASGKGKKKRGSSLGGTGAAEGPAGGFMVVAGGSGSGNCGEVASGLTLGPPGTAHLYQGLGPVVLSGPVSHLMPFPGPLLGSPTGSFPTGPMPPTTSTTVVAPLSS
RUNX1C (in CMK cells, co-precipitated with HA-GATA1/GATA1s) (Q01196-8, form named): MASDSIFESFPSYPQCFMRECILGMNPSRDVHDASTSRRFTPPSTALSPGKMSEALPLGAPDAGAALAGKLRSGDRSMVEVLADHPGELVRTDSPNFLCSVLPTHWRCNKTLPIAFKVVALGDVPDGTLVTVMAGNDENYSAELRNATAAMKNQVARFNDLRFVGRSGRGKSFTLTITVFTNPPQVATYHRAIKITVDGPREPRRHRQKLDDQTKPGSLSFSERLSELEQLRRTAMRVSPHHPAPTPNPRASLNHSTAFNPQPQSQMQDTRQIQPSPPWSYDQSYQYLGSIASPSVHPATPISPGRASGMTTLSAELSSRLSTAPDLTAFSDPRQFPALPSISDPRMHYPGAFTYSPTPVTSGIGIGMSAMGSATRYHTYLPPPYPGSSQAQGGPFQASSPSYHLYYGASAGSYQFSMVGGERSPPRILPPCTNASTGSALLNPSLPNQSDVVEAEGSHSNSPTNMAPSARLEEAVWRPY

The target of this assay is HA-tagged GATA1 (doxycycline-inducible, in CMK cells) (UniProt P15976). In words: co-IP.

These are yes or no findings as the source states them, for the method shown. Binding seen in cells or lysates may run through a third protein. Some entries that bind do so weakly or less than the wild type.

Regarding “RUNX1C (in CMK cells, co-precipitated with HA-GATA1/GATA1s) (from UniProt Q01196-8 1-480)”, the binding result is given as “binds”.
